This is an account of results in patent US20200339660A1.

This assay addresses CCL22-GST protein. Put plainly: GST pulldown: 120 ng CCL22-GST mixed with 360 ng (N-CCR4)3 on GST agarose, SDS-PAGE with silver staining; GST alone as control.

Results are given in words; binding and its absence hold for the method and conditions named. Binding seen in cells or lysates may run through a third protein. Some results given as binding are weak or reduced against the parent protein; the word gives no strength.

B1: (N-CCR4)3 protein (receptor)
chain: MNPTDIADTTLDESIYSNYYLYESIPKPCTKEGIKAFGELFLPPLYSGGGGSGGGGSMNPTDIADTTLDESIYSNYYLYESIPKPCTKEGIKAFGELFLPPLYSGGGGSGGGGSMNPTDIADTTLDESIYSNYYLYESIPKPCTKEGIKAFGELFLPPLYSLDPNSSSVDKLAAALEHHHHHH
As to B1, the binding result was “binds”.
